Results from patent publication US20220133722A1, “PHARMACEUTICAL COMPOSITIONS” (QUE ONCOLOGY PTY LTD, priority 2019, published 2022).
“And” between values parts separate entries of the source, which are not always exact repeats. Equal values may be shown once. The name of at least one read-out is uncertain.

How the values were obtained:
[1] = Part 2 PK study: 200 mg QD versus 100 mg BID for 10 days under fed conditions; assay type: in vivo, human
Experimental: Part 2 involved analysing the PK parameters obtained following either single (QD) or twice daily (BD) dosing of a compound of formula (Ia) under fed conditions.
Subjects were randomized 1:1 to receive a daily dose of 200 mg administered once daily in the morning (200 mg capsule) or twice daily (100 mg capsules BID) for a total of 10 days. PK blood samples were taken on Day 1 pre-dose and at 0.25, 0.5, 1.0, 1.5, 2, 3, 4, 8, 10, 12 and 16 hours post-dose. On Days 2 to 10, PK blood samples were taken once pre-dose, and on Days 11 to 14, at 24, 36, 48, 60, 72 and 96 hours post-dose.
Subjects selected for participation checked into the clinical unit and were randomized to the dosing regimen receiving their first dose of study drug on the morning of Day 1 followed by PK and safety assessments through the morning of Day 2 (24 hours post-dose). Subjects on a BID regimen received their second dose of study drug approximately 12 hours after the first dose. Subjects remained confined in the clinic for dosing BID or QD through the last dose of study drug on the morning of Day 10. PK samples were collected through 96 hrs post-dose. Subjects were discharged from the clinic following collection of the 72 hr PK sample, returning to the clinic on the morning of Day 14 for the 96 hr sample collection.
(§1) For both Parts 1 and 2, samples were processed and analysed as follows. The method extracted Q-122 and the Internal Standard (IS, Q-122 ^13C4) from human plasma using protein precipitation extraction.
(§2) The analytes were separated by HPLC on a Phenomenex Synergi Polar-RP column, and the eluates monitored by an API4000 MS/MS detector in positive MRM mode. The extract was then assayed against a calibration curve. The data were acquired and processed by the data acquisition system Analyst® (Sciex) linked directly to the API4000 MS/MS detector and then processed in Watson LIMS™ (Thermo Scientific), where applicable. The method range is from 10.0 to 2500 ng/mL using 50 μL of matrix and has a run time of approximately 3.2 minutes per sample.
Plasma PK parameters for each dosing regimen and dose level were calculated from the concentrations of Q-122 and its major metabolites measured in pre-dose and post-dose plasma samples. For each dose level, descriptive statistics (sample size, arithmetic means, geometric means, standard deviation, % coefficient of variation, minimum, median, and maximum) are presented.
The pharmacokinetic results were processed according to standard non-compartmental analytical procedures. The software used was Phoenix™ WinNonlin® v 6.4 (Pharsight Corporation, USA) and Microsoft® Excel® 2010 (Microsoft Corporation). The following PK parameters were estimated from plasma data.

[2] = Part 1 PK study: single oral 200 mg dose, fed (high-fat meal) versus fasted; assay type: in vivo, human
Experimental: Part 1 involved analysing the PK parameters obtained following single oral administration of 200 mg tablets of a compound of formula (Ia) in free base form to 12 healthy female subjects following either fed (high-fat meal) or fasted conditions.
For Part 1 • Cmax maximum plasma concentration (observed) • Tmax time to reach the maximum plasma concentration (observed) • Clast last observed quantifiable concentration in plasma • Tlast time of last observed quantifiable concentration in plasma • AUC0-last area under the plasma concentration-time curve from time 0 to the time of the last quantifiable concentration • AUCinf area under the plasma concentration-time curve from time 0 to infinite time, calculated as the sum of AUClast and Clast/kel • % AUCexp percent of AUC extrapolated between AUC0-last and AUCinf • kel apparent terminal elimination rate constant • t1/2 elimination half-life associated with the terminal slope (kel) of the semilogarithmic drug concentration-time curve, calculated as 0.693/kel • CL/F apparent total body clearance of a drug from the plasma calculated by: CL/F=Dose/AUCinf • Vz/F apparent volume of distribution at steady state calculated by: V/F=[…]
An initial dose was administered on Day 1 followed by collection of samples for PK analysis for 96 hours. PK blood samples were taken pre-dose and 0.25, 0.5, 1.0, 1.5, 2, 3, 4, 8, 10, 12, 16, 24, 36, 48, 60, 72 and 96 hours post-dose, and urine samples were taken at 0-4, 4-8, 8-12, 12-24 and 24-48 hours. Ten days after the initial dose of study drug (Day 11), a second dose of drug was administered followed by collection of PK samples. Subjects completed the End-of-Study Visit (EOS) on Day 18, 7 days after the last dose of study drug.
Subjects selected for participation checked into the clinical unit and were randomized (on the morning of Day 1) to food state for study treatment; one half received study drug in the fed state first followed by fasted state for the second dose while the other half received study drug in the fasted state first followed by fed state. Prior to dosing on Day 1, all subjects fasted for a minimum of 10 hours overnight. On the morning of Day 1, subjects dosed in the fed state received the study drug within 10 min of completing a high fat breakfast. […] Plasma and urine samples were collected as set out above for the PK analysis. Subjects remained in the clinic for study procedures and blood draws before checking out after completion of study procedures on the morning of Day 4 (i.e., 72 hours post-dose) returning for the final PK blood draw on Day 5 at 96 hr post-dose. After the first single dose of study drug, subjects completed a 10-day washout period, returning to the clinical unit for check-in on Day 10. Subjects fasted overnight, receiving the second dose of study drug in the fed or fasted state on the morning of Day 11. Subjects were discharged from the clinic after the collection of the final 72-hr PK sample returning the next day for the 96 hr blood draw.
as §1, §2
Plasma PK parameters for each dosing regimen and dose level were calculated from the concentrations of Q-122 and its major metabolites measured in pre-dose and post-dose plasma samples. […]

c1cnc(NCc2ccc(CNc3ncccn3)cc2)nc1 [Q-122]
Vz/F ([1]; 100 mg BID, Day 10, individual subjects): 257.95 L and 144.95 L and 1171.51 L and 162.90 L and 356.99 L and 125.31 L | Vz/F ([1]; 100 mg BID, Day 10, max): 1171.51 L | Vz/F ([1]; 100 mg BID, Day 10, min): 125.31 L | Vz/F ([1]; 200 mg QD, Day 10, individual subjects): 387.37 L and 588.86 L and 391.51 L and 1020.57 L and 2610.40 L and 284.65 L | Vz/F ([1]; 200 mg QD, Day 10, max): 2610.40 L | Vz/F ([1]; 200 mg QD, Day 10, min): 284.65 L | Vz/F ([2]; fasted, individual subjects): 553.84 L and 777.51 L and 1113.30 L and 462.64 L and 1275.63 L and 1199.14 L and 818.75 L and 1272.25 L and 721.24 L and 544.90 L | Vz/F ([2]; fasted, max): 1275.63 L | Vz/F ([2]; fasted, min): 462.64 L | Vz/F ([2]; fed (high-fat meal), individual subjects): 136.98 L and 638.99 L and 1346.32 L and 167.23 L and 711.86 L and 152.37 L and 225.16 L and 240.47 L and 171.77 L and 250.37 L | Vz/F ([2]; fed (high-fat meal), max): 1346.32 L | Vz/F ([2]; fed (high-fat meal), min): 136.98 L
